Measurements: PMC10165233
Results are given in words; binding and its absence hold for the method and conditions named. Binding seen in cells or lysates may run through a third protein. These calls come from enrichment with a bait or labelling near it, and not all partners need be listed.

Protein sequences, listed by entry. Tags and fused reporters are not part of them.
UniProt O14980: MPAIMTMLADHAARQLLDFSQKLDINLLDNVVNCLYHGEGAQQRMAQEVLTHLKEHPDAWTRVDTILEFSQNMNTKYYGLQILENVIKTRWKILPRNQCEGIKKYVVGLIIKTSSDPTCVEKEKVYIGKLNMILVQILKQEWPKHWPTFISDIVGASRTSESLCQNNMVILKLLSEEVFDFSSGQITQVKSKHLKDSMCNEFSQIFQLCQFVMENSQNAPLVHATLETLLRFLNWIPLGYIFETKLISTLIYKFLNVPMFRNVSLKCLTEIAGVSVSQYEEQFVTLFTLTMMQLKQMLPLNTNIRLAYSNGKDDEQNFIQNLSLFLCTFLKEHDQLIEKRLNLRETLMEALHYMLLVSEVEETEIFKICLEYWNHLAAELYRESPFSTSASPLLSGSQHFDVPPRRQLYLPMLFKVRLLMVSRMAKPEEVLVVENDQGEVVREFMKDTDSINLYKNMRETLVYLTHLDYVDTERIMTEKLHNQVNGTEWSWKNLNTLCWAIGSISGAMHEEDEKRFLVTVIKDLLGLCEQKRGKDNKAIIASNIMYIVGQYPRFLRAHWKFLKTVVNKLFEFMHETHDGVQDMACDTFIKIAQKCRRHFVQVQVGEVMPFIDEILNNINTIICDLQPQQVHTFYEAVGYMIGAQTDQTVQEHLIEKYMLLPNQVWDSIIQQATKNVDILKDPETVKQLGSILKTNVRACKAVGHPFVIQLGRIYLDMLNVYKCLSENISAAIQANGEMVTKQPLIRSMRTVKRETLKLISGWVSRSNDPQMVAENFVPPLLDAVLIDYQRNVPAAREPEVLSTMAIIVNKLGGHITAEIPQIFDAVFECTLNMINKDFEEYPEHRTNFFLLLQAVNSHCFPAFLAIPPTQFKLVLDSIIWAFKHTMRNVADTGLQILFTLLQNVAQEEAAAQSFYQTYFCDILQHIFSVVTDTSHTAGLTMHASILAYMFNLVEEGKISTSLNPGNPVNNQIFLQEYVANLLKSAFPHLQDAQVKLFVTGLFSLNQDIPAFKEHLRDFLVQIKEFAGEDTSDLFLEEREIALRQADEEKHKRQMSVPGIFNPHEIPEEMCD

Target: T1, basic leucine zipper transcription factor ATF (activating transcription factor)-like 2 (BATF2) (human (endogenous in HCT116 and CCD 841 CoN)) (UniProt Q8N1L9)
T1 sequence: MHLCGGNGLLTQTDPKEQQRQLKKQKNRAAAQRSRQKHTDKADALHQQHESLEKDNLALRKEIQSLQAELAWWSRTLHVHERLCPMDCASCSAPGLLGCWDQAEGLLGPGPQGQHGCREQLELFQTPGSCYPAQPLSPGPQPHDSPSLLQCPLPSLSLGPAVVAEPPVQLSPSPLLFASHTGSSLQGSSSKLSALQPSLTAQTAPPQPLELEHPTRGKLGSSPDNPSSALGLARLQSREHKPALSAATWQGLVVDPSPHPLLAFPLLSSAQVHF
Test: affinity purification with mass spectrometry; proteins of CCD 841 CoN and HCT116 cells co-immunoprecipitated on anti-IgG or anti-BATF2 magnetic beads; label-free LC-MS/MS

binding: binds
Substance: chromosome region maintenance 1 (CRM1) (from UniProt O14980 1-1071)
